Results are given in words; binding and its absence hold for the method and conditions named. Binding seen in cells or lysates may run through a third protein.

The chains behind the UniProt entries cited, without tags or fusion partners.
UniProt Q06A28: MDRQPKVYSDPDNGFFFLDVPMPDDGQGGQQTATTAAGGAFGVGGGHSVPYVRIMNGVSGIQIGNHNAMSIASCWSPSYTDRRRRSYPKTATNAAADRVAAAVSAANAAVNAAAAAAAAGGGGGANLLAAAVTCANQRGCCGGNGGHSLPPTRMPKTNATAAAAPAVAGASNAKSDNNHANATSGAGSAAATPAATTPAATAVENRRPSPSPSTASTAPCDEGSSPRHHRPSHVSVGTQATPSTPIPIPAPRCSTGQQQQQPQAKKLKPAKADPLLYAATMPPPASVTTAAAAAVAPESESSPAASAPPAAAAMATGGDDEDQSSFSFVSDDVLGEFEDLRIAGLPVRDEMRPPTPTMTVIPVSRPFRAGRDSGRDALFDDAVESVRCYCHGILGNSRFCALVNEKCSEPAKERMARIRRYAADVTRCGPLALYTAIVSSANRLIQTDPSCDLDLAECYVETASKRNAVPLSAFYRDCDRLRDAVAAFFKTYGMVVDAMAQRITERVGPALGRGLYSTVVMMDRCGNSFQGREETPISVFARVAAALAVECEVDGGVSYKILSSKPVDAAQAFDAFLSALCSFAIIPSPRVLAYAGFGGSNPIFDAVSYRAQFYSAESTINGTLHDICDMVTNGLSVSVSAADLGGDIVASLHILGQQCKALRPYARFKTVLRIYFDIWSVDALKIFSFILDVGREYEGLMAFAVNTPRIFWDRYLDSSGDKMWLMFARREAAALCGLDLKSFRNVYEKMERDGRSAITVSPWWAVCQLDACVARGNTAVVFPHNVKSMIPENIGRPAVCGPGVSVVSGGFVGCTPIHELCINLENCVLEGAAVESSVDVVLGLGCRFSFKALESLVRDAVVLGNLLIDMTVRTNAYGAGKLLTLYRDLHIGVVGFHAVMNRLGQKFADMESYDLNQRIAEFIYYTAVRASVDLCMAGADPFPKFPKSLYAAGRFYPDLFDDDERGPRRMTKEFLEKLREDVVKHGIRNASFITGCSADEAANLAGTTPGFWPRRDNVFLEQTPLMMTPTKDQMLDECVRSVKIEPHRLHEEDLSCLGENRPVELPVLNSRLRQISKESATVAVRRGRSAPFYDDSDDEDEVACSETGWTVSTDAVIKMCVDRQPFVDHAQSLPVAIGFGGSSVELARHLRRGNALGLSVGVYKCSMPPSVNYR
UniProt Q62167: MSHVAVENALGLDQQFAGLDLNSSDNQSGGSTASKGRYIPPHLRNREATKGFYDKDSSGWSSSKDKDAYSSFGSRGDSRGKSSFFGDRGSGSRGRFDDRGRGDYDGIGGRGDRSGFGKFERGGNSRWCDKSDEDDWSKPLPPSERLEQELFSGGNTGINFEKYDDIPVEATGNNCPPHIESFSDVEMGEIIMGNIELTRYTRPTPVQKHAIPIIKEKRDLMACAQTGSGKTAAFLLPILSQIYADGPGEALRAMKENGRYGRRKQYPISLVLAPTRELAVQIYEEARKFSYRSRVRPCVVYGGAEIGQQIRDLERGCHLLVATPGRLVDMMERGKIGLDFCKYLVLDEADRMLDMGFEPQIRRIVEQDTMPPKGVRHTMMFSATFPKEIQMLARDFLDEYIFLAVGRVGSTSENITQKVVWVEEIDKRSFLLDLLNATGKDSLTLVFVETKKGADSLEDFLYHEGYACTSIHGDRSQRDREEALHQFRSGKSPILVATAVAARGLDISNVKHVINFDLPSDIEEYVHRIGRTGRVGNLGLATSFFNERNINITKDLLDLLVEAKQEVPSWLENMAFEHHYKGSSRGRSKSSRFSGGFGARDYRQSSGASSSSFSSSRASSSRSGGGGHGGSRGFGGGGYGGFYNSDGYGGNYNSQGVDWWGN
UniProt Q80TP3: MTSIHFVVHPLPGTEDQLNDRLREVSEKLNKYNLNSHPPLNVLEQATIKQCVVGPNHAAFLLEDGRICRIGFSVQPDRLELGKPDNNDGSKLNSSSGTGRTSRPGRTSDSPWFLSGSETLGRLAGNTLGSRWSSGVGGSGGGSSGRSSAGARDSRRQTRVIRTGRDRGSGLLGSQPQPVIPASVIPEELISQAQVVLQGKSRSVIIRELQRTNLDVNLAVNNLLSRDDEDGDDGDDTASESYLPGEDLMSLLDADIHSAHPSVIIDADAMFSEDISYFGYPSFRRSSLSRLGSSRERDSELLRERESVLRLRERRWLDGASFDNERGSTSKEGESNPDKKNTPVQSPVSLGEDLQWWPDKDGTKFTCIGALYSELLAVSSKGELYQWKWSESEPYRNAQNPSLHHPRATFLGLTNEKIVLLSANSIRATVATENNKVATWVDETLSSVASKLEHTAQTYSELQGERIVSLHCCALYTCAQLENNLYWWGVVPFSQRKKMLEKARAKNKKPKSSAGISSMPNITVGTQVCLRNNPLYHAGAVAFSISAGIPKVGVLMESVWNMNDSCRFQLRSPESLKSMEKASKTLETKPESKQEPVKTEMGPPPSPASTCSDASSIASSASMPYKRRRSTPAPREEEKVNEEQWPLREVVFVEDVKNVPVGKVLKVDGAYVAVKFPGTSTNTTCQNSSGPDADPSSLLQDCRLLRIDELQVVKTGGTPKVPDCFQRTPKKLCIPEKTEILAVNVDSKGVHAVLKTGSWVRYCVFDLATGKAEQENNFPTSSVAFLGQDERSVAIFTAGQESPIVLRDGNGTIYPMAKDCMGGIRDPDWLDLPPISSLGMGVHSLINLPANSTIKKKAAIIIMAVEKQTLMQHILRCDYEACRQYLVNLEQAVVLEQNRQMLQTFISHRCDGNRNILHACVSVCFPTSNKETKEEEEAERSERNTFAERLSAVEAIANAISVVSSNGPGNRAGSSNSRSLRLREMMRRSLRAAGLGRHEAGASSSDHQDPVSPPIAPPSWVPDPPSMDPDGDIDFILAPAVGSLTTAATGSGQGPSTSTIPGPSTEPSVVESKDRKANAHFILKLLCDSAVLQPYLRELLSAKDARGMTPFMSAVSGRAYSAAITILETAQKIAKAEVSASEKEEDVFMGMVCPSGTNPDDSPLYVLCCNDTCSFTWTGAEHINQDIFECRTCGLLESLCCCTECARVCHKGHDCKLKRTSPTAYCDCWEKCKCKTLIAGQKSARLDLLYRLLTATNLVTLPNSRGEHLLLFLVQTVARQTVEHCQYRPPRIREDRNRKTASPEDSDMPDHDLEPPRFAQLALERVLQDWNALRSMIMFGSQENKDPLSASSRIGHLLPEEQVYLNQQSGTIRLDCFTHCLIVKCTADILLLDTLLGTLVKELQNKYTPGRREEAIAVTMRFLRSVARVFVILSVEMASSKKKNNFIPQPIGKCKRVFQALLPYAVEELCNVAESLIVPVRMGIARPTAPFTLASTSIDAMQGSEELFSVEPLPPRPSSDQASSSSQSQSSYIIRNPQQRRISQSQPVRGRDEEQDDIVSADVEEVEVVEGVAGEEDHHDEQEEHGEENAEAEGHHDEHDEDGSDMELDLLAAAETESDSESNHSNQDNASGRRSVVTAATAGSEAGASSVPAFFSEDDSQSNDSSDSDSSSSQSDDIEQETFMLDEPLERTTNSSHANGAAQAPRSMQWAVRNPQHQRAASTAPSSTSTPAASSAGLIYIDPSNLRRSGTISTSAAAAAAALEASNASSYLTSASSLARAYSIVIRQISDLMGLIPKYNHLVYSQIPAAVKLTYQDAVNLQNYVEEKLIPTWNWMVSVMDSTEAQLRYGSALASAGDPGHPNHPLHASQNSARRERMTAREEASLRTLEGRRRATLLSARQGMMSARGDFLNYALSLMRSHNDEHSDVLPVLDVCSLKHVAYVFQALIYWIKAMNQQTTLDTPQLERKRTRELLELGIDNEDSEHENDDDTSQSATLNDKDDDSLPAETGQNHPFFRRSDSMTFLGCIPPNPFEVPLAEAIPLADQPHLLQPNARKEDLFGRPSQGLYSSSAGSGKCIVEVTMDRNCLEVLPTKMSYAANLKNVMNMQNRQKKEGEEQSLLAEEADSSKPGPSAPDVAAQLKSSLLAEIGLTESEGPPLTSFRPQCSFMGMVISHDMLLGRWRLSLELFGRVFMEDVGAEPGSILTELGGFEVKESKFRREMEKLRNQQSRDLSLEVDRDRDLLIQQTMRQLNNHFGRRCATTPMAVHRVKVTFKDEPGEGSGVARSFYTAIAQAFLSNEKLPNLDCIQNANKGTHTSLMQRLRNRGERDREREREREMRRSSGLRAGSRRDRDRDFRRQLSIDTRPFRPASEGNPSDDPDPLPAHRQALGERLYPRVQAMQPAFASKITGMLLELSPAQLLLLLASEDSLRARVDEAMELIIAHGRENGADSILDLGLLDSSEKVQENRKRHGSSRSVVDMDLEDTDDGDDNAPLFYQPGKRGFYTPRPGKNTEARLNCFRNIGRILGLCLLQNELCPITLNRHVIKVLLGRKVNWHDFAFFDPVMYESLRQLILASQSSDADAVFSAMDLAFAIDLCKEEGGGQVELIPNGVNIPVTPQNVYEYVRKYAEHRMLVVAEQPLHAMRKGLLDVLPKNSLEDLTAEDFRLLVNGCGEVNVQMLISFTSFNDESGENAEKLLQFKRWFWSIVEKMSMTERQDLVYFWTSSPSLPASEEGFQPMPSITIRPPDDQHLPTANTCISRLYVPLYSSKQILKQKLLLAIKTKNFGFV

Sequences and labels used below:
B1: Interferon-induced protein with tetratricopeptide repeats 1 (IFIT1), mouse, endogenous (protein, UniProt Q64282 1-463)
chain: MGENADGDQVMENLLQLRCHFTWKLLFENNDIPDLEVRISEQVQFLDIKNPLGMHNLLAYVRHLKGQQDEALQSLKEAEALIQSEQLSKRSLATWGNCAWLHYHRGSLAEAQIYLDKVEKVCKEFSSPFRYRLECAEMDCEEGWALLKCGGGNYKQAMACFAKALKVEPENPEYNTGYAVVAYRQDLDDNFISLEPLRKAVRLNPEDPYLKVLLALKLQDLGEHVEAEAHIEEALSSTSCQSYVIRYAAKYFRRKHRVDKALHLLNRALQASPSSGYLHYQKGLCYKQQISQLRTSRNRQPRRQDNVQELAQQAIHEFQETLKLRPTFEMAYVCMAEVQAEIHQYEEAERNFQKALNNKTLVAHIEQDIHLRYGRFLQFHKQSEDKAITLYLKGLKVEEKSFAWRKLLTALEKVAERRVCQNVHLVESTSLLGLVYKLKGQEKNALFYYEKALRLTGEMNPAF

This assay concerns the target MCMV M45 protein, HA-tagged, expressed by the recombinant virus MCMV M45-HA (murine cytomegalovirus (MCMV)) (UniProt Q06A28). Put plainly: co-IP; SVEC4-10 cells (WT, Ddx3x ko or Ubr5 ko) infected with MCMV m139-HA or M45-HA (MOI = 5 by the legends), lysed 24 hpi in NP-40 buffer; anti-HA affinity matrix; washes up to 500 mM NaCl; immunoblot. (A western blot detects proteins with antibodies after separation by electrophoresis.)
Consider “ATP-dependent RNA helicase DDX3 (DDX3X), mouse, endogenous (from UniProt Q62167 1-662)”, for which the binding entry was “no binding”.

“E3 ubiquitin-protein ligase UBR5, mouse, endogenous (from UniProt Q80TP3 1-2792)”: the binding result is “no binding”.

As for B1, the binding entry is reported as “no binding”.
